Laboratory results reported in publication PMC5399192.
These are yes or no findings as the source states them, for the method shown. In cells and extracts the contact can be indirect. Some entries that bind do so weakly or less than the wild type.

Chains of the proteins cited; added tags and fusions are not shown.
UniProt P38532: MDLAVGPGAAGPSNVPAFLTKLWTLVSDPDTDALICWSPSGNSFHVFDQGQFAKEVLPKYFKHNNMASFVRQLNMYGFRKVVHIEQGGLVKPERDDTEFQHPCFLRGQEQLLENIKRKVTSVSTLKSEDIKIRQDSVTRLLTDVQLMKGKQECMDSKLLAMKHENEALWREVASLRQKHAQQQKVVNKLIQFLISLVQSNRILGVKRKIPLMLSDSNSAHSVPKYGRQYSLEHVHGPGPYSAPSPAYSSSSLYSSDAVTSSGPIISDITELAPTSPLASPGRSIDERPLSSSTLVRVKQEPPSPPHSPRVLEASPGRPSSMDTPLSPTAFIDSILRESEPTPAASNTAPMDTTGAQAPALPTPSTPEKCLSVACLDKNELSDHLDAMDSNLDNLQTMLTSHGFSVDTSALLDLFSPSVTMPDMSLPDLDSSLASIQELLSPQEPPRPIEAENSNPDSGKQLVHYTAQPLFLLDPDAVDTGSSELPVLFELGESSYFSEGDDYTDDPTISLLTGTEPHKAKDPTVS

Molecular target: heat shock factor 1 (mouse (endogenous in immortalized mouse fibroblasts differentiated to brown adipocytes)) (UniProt P38532)
Test: co-IP; lysates from differentiated WT and PGC1α-null brown adipocytes; immunoprecipitated with anti-HSF1 antibody (rabbit IgG as control), Catch and Release v2.0 system; blotted with anti-PGC1α and anti-HSF1; cells with or without heat shock at 42 °C for 1 h and 1 h recovery

B1: Peroxisome proliferator-activated receptor γ coactivator 1α (protein, UniProt O70343 1-797)
chain: MAWDMCSQDSVWSDIECAALVGEDQPLCPDLPELDLSELDVNDLDTDSFLGGLKWCSDQSEIISNQYNNEPANIFEKIDEENEANLLAVLTETLDSLPVDEDGLPSFDALTDGAVTTDNEASPSSMPDGTPPPQEAEEPSLLKKLLLAPANTQLSYNECSGLSTQNHAANHTHRIRTNPAIVKTENSWSNKAKSICQQQKPQRRPCSELLKYLTTNDDPPHTKPTENRNSSRDKCASKKKSHTQPQSQHAQAKPTTLSLPLTPESPNDPKGSPFENKTIERTLSVELSGTAGLTPPTTPPHKANQDNPFKASPKLKPSCKTVVPPPTKRARYSECSGTQGSHSTKKGPEQSELYAQLSKSSGLSRGHEERKTKRPSLRLFGDHDYCQSLNSKTDILINISQELQDSRQLDFKDASCDWQGHICSSTDSGQCYLRETLEASKQVSPCSTRKQLQDQEIRAELNKHFGHPCQAVFDDKSDKTSELRDGDFSNEQFSKLPVFINSGLAMDGLFDDSEDESDKLSYPWDGTQPYSLFDVSPSCSSFNSPCRDSVSPPKSLFSQRPQRMRSRSRSFSRHRSCSRSPYSRSRSRSPGSRSSSRSCYYYESSHYRHRTHRNSPLYVRSRSRSPYSRRPRYDSYEAYEHERLKRDEYRKEHEKRESERAKQRERQKQKAIEERRVIYVGKIRPDTTRTELRDRFEVFGEIEECTVNLRDDGDSYGFITYRYTCDAFAALENGYTLRRSNETDFELYFCGRKQFFKSNYADLDTNSDDFDPASTKSKYDSLDFDSLLKEAQRSLRR
  binding: binds
